PubChem BioAssay AID504834 (National Center for Advancing Translational Sciences (NCATS), 2011)
Among all 320,000 compounds or so, about 22,000 (6.9%) were called active. Inconclusive results, whose numbers are uncertain, are shown with a selection of clear calls. Calls come from the whole dose curve; as a rule, active = well fitted inhibition curve with a large enough effect; inconclusive = small, poorly fitted or top-dose-only effect, or another doubt; inactive = no such curve, though single readings can be large or run the other way. A potency beside an inconclusive call is a rough fit, not a confirmed value.

Experiment: Primary qHTS for delayed death inhibitors of the malarial parasite plastid, 96 hour incubation
Settings: P. falciparum luciferase reporter growth; series mostly up to 28.7 µM
Outline: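 P. falciparum expressing integrated firefly luciferase, in erythrocytes at 2% hematocrit, 0.05% parasitemia, incubated with compounds 96 h at 37 C, 5% CO2. Growth inhibition read as loss of luminescence; two-generation exposure targets delayed-death apicoplast inhibitors.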
% is set by controls: 0 for no effect and ±100 for the full control effect; potency is the fitted concentration of half-maximal effect.

SMILES	Potency	activity change, negative = inhibition
Cn1c(SCC(=O)NCC2CCCO2)ncc(C(=O)Nc2ccccc2)c1=O (stereo unspecified)	inconclusive: 2.94 µM [inhibitor, partial curve]	–
Cc1ccccc1CSCCNC(=S)Nc1ccccc1	–	inactive: 1.17% [at 5.75 µM]
Cc1cccc(-c2nnc(SCc3cc(=O)[nH]c4ccccc34)n2C)c1	inconclusive: 4.15 µM [inhibitor, single point]	–
CCN(CC)CCNc1nc(SC)nc2sc3c(c12)CCN(C)C3	inconclusive: 13.1 µM [inhibitor, single point]	–
NC(=O)c1[nH]cnc1N	inactive	–
CCOc1ccc(NC(=O)CCNC(=O)Cn2ccc3ccccc3c2=O)cc1	inconclusive: 11.7 µM [inhibitor, single point]	–
C[C@@H]1CCC(=O)N(CC[C@H](Oc2ccccc2)c2ccccc2)CC1	inconclusive: 2.94 µM [inhibitor, partial curve, poor fit]	–
O=C(CN1CCCCCC1)Nc1ccccc1Cl	inconclusive: 14.7 µM [inhibitor, single point]	–
O=C(NC1CC1)C1=C[C@@H](c2c[nH]c3ccccc23)C[C@@H](OCc2ccc(CO)cc2)O1	inconclusive: 16.5 µM [inhibitor, single point]	–
CCn1cc(C(=O)NCCC(C)C)c(=O)c2cc(F)c(N3CCN(C)CC3)cc21	inconclusive: 11.7 µM [inhibitor, partial curve, poor fit]	–
N#C/C(=C\N1CCN(Cc2ccc3c(c2)OCO3)CC1)c1nc2ccccc2s1	inconclusive: 5.22 µM [inhibitor, partial curve, poor fit]	–
O=C1/C(=C/c2cccnc2)SC(=S)N1C1CCS(=O)(=O)C1 (stereo unspecified)	inconclusive: 18.5 µM [inhibitor, single point]	–
Cc1c(O)ccc(C(=O)CN2CCN(Cc3ccc4c(c3)OCO4)CC2)c1O	active: 11.7 µM	–
NS(=O)(=O)c1ccc(CCNC(=O)c2ccc3ccccc3n2)cc1	inactive	–
CC(C)c1nnc(-c2ccc(Cl)cc2)c(N(C)C)n1	active: 9.28 µM	–
CCOc1ccc(Br)cc1S(=O)(=O)N1CCSC1	inconclusive: 0.37 µM [inhibitor, partial curve, poor fit]	–
O=C(Nc1ccc(C(=O)O)cc1)/C(=C\c1ccco1)NC(=O)c1ccccc1	active: 9.28 µM	–
Cc1cc(C)c(C(=O)Cn2cnc3cc([N+](=O)[O-])ccc3c2=O)cc1C	inconclusive: 18.5 µM [inhibitor, single point]	–
CCOC(=O)c1oc2ccccc2c1NC(=O)Cc1cccs1	inconclusive: 18.5 µM [inhibitor, single point]	–
O=C1C(Cl)=C(NCCN2CCCCC2)C(=O)c2ccccc21	inconclusive: 1.47 µM [inhibitor, full curve, poor fit]	–
COc1ccc2c(C(=O)c3ccc(Cl)cc3)n(CCCC(N)=O)[n+]([O-])c2c1	inconclusive: 18.5 µM [inhibitor, single point]	–
O=[N+]([O-])c1cc2c(cc1/C=N/NS(=O)(=O)c1ccc(Br)cc1)OCO2	inconclusive: 1.47 µM [inhibitor, single point]	–

Three entries picked at random from the list so far, as already listed:
SMILES	Potency	activity change, negative = inhibition
CC(C)c1nnc(-c2ccc(Cl)cc2)c(N(C)C)n1	active: 9.28 µM	–
O=C1/C(=C/c2cccnc2)SC(=S)N1C1CCS(=O)(=O)C1 (stereo unspecified)	inconclusive: 18.5 µM [inhibitor, single point]	–
Cc1cc(C)c(C(=O)Cn2cnc3cc([N+](=O)[O-])ccc3c2=O)cc1C	inconclusive: 18.5 µM [inhibitor, single point]	–

Further records.

SMILES	Potency	activity change, negative = inhibition
CCOC(=O)c1sc(NC(=O)CS(=O)(=O)c2ccc(C)cc2)nc1C	inactive	–
Cc1ccccc1OCC(=O)NNC(=O)CSc1nc(N)cc(N)n1	active: 8.28 µM	–
COc1ccccc1NC(=O)Nc1nc(CC(=O)N2CCN(c3ccccc3)CC2)cs1	inconclusive: 5.86 µM [inhibitor, partial curve]	–
Cc1ccc(CNC(=O)CCC(=O)N2CC(C)Sc3ccccc32)cc1 (stereo unspecified)	inconclusive: 7.38 µM [inhibitor, partial curve, poor fit]	–
O=C(O)c1cccc(NC(=S)NC(=O)C(c2ccccc2)c2ccccc2)c1	inactive	–
CC(C)Sc1cc(N2CCCC2)nc(-c2ccccc2)n1	inconclusive: 9.28 µM [inhibitor, partial curve, poor fit]	–
CC(=O)c1ccc(S(=O)(=O)N2CCN(c3ccccc3F)CC2)cc1	inactive	–
COc1ccc(CN2CCCC(C(=O)Nc3cccc(-n4cnnn4)c3)C2)c(C)c1C (stereo unspecified)	inconclusive: 14.7 µM [inhibitor, single point]	–
CCOc1ccc2c(c1)c(N=O)c(O)n2C	inconclusive: 18.5 µM [inhibitor, single point]	–
Cc1oc2c(CN3CCOCC3)c(O)ccc2c(=O)c1-c1ccccc1	inconclusive: 3.7 µM [inhibitor, partial curve]	–
CCNc1nc(NC(C)C)nc(NC(C)(C)C)n1	inconclusive: 2.94 µM [inhibitor, partial curve]	–
COc1ccc(C(=O)NCc2ccncc2)cc1S(=O)(=O)NCc1ccc(Cl)cc1	active: 10.4 µM	–
Cc1ccc(C(=O)NC2CCCC2)cc1S(=O)(=O)N1CCCCC1	inactive	–
COc1ccccc1Nc1ncnc2nc[nH]c12	inconclusive: 4.15 µM [inhibitor, partial curve, poor fit]	–
CCN(CC)C(=O)CSC1=C(C#N)C(c2cccs2)C=C(C)N1 (stereo unspecified)	inconclusive: 18.5 µM [inhibitor, single point]	–
COc1cc(OC)c(C(=O)OCC(=O)NC2CCCC2)cc1OC	inactive	–
OCCOCCNc1ncnc2sc(-c3ccccc3)cc12	inconclusive: 18.5 µM [inhibitor, single point]	–
N/C(=N\c1nc2c(c(=O)[nH]1)CCCC2)Nc1ccccc1	inconclusive: 16.5 µM [inhibitor, partial curve, poor fit]	–
Cc1cc(S(=O)(=O)NCC(C)C)ccc1OCC(=O)NC1CC1	inconclusive: 5.86 µM [inhibitor, partial curve]	–
CN(CC(=O)Nc1nc2ccc(F)cc2s1)S(=O)(=O)c1ccc(Cl)cc1	inconclusive: 18.5 µM [inhibitor, single point]	–
Cc1ccc(S(=O)(=O)N(CC(=O)NC2CCCC2)c2cccc(C)c2)cc1	inconclusive: 13.1 µM [inhibitor, partial curve, poor fit]	–
CC(C)CC(=O)NC(=S)N1CCN(c2ccc([N+](=O)[O-])cc2Cl)CC1	inconclusive: 18.5 µM [inhibitor, single point]	–

SMILES	Potency	activity change, negative = inhibition
Cc1ccc(Nc2nc(COC(=O)C3CC3)cs2)cc1	inactive	–
CC1CCN(CC2C(=O)O[C@@H]3C[C@@]4(C)CCC[C@H](C)C4=C[C@H]23)CC(C)(C)C1 (stereo partly specified)	inconclusive: 6.57 µM [inhibitor, single point]	–
O=[N+]([O-])c1cccc(CSc2nnc(Cc3ccccc3)n2-c2ccc(F)cc2)c1	inconclusive: 1.85 µM [inhibitor, full curve, poor fit]	–
CCC(C)N1C(=O)CCC1C(=O)N1CCN(c2ccccc2F)CC1 (stereo unspecified)	inconclusive: 0.0029 µM [inhibitor, full curve, poor fit]	–
Cc1nc2ccccn2c1C(=O)/C=C/c1ccc(F)cc1	inconclusive: 0.0029 µM [inhibitor, full curve, poor fit]	–
CCOC(=O)Cn1cnc2c(sc3nc(C)cc(C)c32)c1=O	inactive	–
COc1ccc(S(=O)(=O)NCCSCc2cccc(C)c2)cc1Br	inconclusive: 3.7 µM [inhibitor, partial curve, poor fit]	–
CC(C)Cc1ccc(/C(=N/O)C(=O)O)s1	inconclusive: 18.5 µM [inhibitor, single point]	–
Cc1ccc(NC(=O)c2sc3nc(C)nc(N4CCN(c5ccccn5)CC4)c3c2C)c(C)c1	inactive	–
COC(=O)c1ccc(CNC(=O)c2ccc3c(c2)NC(=O)CS3)cc1	inconclusive: 10.4 µM [inhibitor, single point]	–
CCCn1nc(NS(=O)(=O)c2ccc(F)cc2)c2cc3ccccc3nc21	inconclusive: 18.5 µM [inhibitor, single point]	–
Cc1ccc(C)c(NC(=O)NNC(=O)CCc2ccccc2)c1	inconclusive: 18.5 µM [inhibitor, single point]	–
C=C1CCN([C@H](C(=O)OCc2ccc(C)cc2)C(C)C)S(=O)(=O)c2ccccc21	inconclusive: 11.7 µM [inhibitor, single point]	–
COc1cccc(N(C(=O)Cn2nnc(-c3ccc(F)cc3)n2)C(C(=O)NCC2CCCO2)c2ccc(Cl)cc2)c1 (stereo unspecified)	inconclusive: 8.28 µM [inhibitor, partial curve]	–
CC(C)c1ccc(C2(C)NC(=O)N(CC(=O)NC3CCCC(C)C3C)C2=O)cc1 (stereo unspecified)	inconclusive: 13.1 µM [inhibitor, partial curve]	–
CC(=O)Nc1ccc(NC(=O)CN(c2cccc([N+](=O)[O-])c2)S(C)(=O)=O)cc1	inactive	–
O=C(c1ccc(Cl)c([N+](=O)[O-])c1)N(Cc1cccc(Cl)c1)C1CCS(=O)(=O)C1 (stereo unspecified)	inactive	–
CC(NC(=O)Nc1ccc(Br)cc1)C(C)(C)C (stereo unspecified)	inconclusive: 18.5 µM [inhibitor, single point]	–
CN(Cc1cnn(C)c1)C(=O)c1sc2cccc(Cl)c2c1Cl	inconclusive: 18.5 µM [inhibitor, single point]	–
Cc1cc([N+](=O)[O-])ccc1NCc1ccc2c(c1)OCCO2	inconclusive: 18.5 µM [inhibitor, single point]	–
CCn1c(=O)cc(SCC(=O)N(C)Cc2ccccc2)c2ccccc21	inconclusive: 18.5 µM [inhibitor, single point]	–
Cc1ccc(S(=O)(=O)N(C)c2ccc(OCC(=O)Nc3nc(-c4ccccc4)cs3)cc2)cc1	inconclusive: 5.86 µM [inhibitor, partial curve, poor fit]	–
